The test deals with T1, Samp1a–YFP (human) (UniProt Q5SNT2).
T1 sequence: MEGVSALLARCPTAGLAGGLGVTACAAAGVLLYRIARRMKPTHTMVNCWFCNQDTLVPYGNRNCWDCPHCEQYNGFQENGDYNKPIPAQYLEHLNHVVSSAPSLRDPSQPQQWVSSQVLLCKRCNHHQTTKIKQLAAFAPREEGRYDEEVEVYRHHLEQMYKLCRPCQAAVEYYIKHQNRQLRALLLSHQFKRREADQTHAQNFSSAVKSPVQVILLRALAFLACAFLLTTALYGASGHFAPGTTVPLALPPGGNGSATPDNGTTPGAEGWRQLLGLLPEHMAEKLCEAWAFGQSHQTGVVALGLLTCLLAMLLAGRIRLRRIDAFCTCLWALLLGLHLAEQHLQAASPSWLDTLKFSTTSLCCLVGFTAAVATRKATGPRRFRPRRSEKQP
In words: co-IP; membrane protein cross-link immunoprecipitation (MCLIP): cells synchronised in metaphase, in vivo cross-linking with 1 mM DSP for 15 min, lysis in 7 M urea and 1% Triton X-100, diluted 8x with PBS, Samp1a–YFP captured on GFP trap agarose beads 2 h at 4°C, wash 250 mM NaCl, 10 mM Hepes, 0.5% Triton X-100, pH 7.4, cross-link reversed with DTT, western blot. (In general: Immunoblotting shows a protein as a band on a membrane.)

By UniProt entry, the sequences of proteins in these tests, tags left out. Where a name states a change or a piece, a line headed by the entry shows the natural chain unless it says otherwise.
UniProt P23258: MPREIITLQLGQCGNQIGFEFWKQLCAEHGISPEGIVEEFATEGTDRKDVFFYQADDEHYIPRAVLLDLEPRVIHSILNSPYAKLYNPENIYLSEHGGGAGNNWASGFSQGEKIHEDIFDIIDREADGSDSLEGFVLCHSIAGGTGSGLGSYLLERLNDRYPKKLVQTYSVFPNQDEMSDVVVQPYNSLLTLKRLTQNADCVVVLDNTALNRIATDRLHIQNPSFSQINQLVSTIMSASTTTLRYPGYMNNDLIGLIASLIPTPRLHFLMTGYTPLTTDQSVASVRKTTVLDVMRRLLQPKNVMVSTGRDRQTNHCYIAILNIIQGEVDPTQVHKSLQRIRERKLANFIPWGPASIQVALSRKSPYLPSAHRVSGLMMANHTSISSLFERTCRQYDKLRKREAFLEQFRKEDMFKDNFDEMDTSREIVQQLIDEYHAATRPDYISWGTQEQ

No constants are given. Whether binding was seen depends on the method and setting. Binding seen in cells or lysates may run through a third protein. Binding can be weak; no strength is given. Where a sequence is shown, tags or fusion partners need not be part of it.

β-tubulin (human (endogenous in HeLa)): the binding result is on record as “no binding”.

For γ-tubulin (from UniProt P23258), the binding result is recorded as “binds”.

These data come from publication PMC5963844.
